Measured values: paper PMC7364817
These are yes or no findings as the source states them, for the method shown. In cells and extracts the contact can be indirect. A yes stands for co-enrichment or nearness to the bait. Other partners may have been found. Sequences can lack the tags named with a protein.

T1: FLAG-tagged SMCR8 (Smith-Magenis Syndrome Chromosome Region, Candidate 8) (UniProt Q8TEV9)
T1 sequence: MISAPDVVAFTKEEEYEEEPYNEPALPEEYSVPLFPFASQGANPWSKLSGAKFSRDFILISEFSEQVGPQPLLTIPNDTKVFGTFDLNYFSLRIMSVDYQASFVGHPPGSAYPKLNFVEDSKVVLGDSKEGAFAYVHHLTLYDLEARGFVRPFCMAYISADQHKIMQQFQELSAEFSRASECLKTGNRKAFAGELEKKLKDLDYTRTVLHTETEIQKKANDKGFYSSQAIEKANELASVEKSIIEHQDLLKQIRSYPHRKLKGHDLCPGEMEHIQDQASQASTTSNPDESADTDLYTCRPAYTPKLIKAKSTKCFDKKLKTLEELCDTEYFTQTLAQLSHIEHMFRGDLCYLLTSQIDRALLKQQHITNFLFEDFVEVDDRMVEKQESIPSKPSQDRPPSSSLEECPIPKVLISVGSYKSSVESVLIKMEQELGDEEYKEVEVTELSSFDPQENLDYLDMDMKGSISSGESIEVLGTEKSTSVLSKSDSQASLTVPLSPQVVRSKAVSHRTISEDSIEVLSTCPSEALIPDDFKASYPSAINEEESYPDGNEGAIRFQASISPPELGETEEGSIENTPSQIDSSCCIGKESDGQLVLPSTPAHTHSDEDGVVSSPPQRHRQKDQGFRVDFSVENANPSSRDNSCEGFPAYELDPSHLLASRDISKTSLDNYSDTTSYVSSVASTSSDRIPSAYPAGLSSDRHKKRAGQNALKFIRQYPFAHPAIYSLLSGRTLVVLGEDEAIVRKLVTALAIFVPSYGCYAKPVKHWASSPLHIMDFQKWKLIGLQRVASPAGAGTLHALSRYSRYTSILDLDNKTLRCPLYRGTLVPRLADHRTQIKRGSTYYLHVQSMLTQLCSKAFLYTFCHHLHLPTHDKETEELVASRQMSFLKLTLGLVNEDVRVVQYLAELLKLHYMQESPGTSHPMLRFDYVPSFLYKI

B1: nucleoporin 93 (protein, UniProt Q8N1F7 1-819)
chain: MDTEGFGELLQQAEQLAAETEGISELPHVERNLQEIQQAGERLRSRTLTRTSQETADVKASVLLGSRGLDISHISQRLESLSAATTFEPLEPVKDTDIQGFLKNEKDNALLSAIEESRKRTFGMAEEYHRESMLVEWEQVKQRILHTLLASGEDALDFTQESEPSYISDVGPPGRSSLDNIEMAYARQIYIYNEKIVNGHLQPNLVDLCASVAELDDKSISDMWTMVKQMTDVLLTPATDALKNRSSVEVRMEFVRQALAYLEQSYKNYTLVTVFGNLHQAQLGGVPGTYQLVRSFLNIKLPAPLPGLQDGEVEGHPVWALIYYCMRCGDLLAASQVVNRAQHQLGEFKTWFQEYMNSKDRRLSPATENKLRLHYRRALRNNTDPYKRAVYCIIGRCDVTDNQSEVADKTEDYLWLKLNQVCFDDDGTSSPQDRLTLSQFQKQLLEDYGESHFTVNQQPFLYFQVLFLTAQFEAAVAFLFRMERLRCHAVHVALVLFELKLLLKSSGQSAQLLSHEPGDPPCLRRLNFVRLLMLYTRKFESTDPREALQYFYFLRDEKDSQGENMFLRCVSELVIESREFDMILGKLENDGSRKPGVIDKFTSDTKPIINKVASVAENKGLFEEAAKLYDLAKNADKVLELMNKLLSPVVPQISAPQSNKERLKNMALSIAERYRAQGISANKFVDSTFYLLLDLITFFDEYHSGHIDRAFDIIERLKLVPLNQESVEERVAAFRNFSDEIRHNLSEVLLATMNILFTQFKRLKGTSPSSSSRPQRVIEDRDSQLRSQARTLITFAGMIPYRTSGDTNARLVQMEVLMN
B2: nucleoporin 133 (protein, UniProt Q8WUM0 1-1156)
chain: MFPAAPSPRTPGTGSRRGPLAGLGPGSTPRTASRKGLPLGSAVSSPVLFSPVGRRSSLSSRGTPTRMFPHHSITESVNYDVKTFGSSLPVKVMEALTLAEVDDQLTINIDEGGWACLVCKEKLIIWKIALSPITKLSVCKELQLPPSDFHWSADLVALSYSSPSGEAHSTQAVAVMVATREGSIRYWPSLAGEDTYTEAFVDSGGDKTYSFLTAVQGGSFILSSSGSQLIRLIPESSGKIHQHILPQGQGMLSGIGRKVSSLFGILSPSSDLTLSSVLWDRERSSFYSLTSSNISKWELDDSSEKHAYSWDINRALKENITDAIWGSESNYEAIKEGVNIRYLDLKQNCDGLVILAAAWHSADNPCLIYYSLITIEDNGCQMSDAVTVEVTQYNPPFQSEDLILCQLTVPNFSNQTAYLYNESAVYVCSTGTGKFSLPQEKIVFNAQGDSVLGAGACGGVPIIFSRNSGLVSITSRENVSILAEDLEGSLASSVAGPNSESMIFETTTKNETIAQEDKIKLLKAAFLQYCRKDLGHAQMVVDELFSSHSDLDSDSELDRAVTQISVDLMDDYPASDPRWAESVPEEAPGFSNTSLIILHQLEDKMKAHSFLMDFIHQVGLFGRLGSFPVRGTPMATRLLLCEHAEKLSAAIVLKNHHSRLSDLVNTAILIALNKREYEIPSNLTPADVFFREVSQVDTICECLLEHEEQVLRDAPMDSIEWAEVVINVNNILKDMLQAASHYRQNRNSLYRREESLEKEPEYVPWTATSGPGGIRTVIIRQHEIVLKVAYPQADSNLRNIVTEQLVALIDCFLDGYVSQLKSVDKSSNRERYDNLEMEYLQKRSDLLSPLLSLGQYLWAASLAEKYCDFDILVQMCEQTDNQSRLQRYMTQFADQNFSDFLFRWYLEKGKRGKLLSQPISQHGQLANFLQAHEHLSWLHEINSQELEKAHATLLGLANMETRYFAKKKTLLGLSKLAALASDFSEDMLQEKIEEMAEQERFLLHQETLPEQLLAEKQLNLSAMPVLTAPQLIGLYICEENRRANEYDFKKALDLLEYIDEEEDININDLKLEILCKALQRDNWSSSDGKDDPIEVSKDSIFVKILQKLLKDGIQLSEYLPEVKDLLQADQLGSLKSNPYFEFVLKANYEYYVQGQI
B3: ribosome binding protein 1 (protein, UniProt Q9P2E9 1-1410)
chain: MDIYDTQTLGVVVFGGFMVVSAIGIFLVSTFSMKETSYEEALANQRKEMAKTHHQKVEKKKKEKTVEKKGKTKKKEEKPNGKIPDHDPAPNVTVLLREPVRAPAVAVAPTPVQPPIIVAPVATVPAMPQEKLASSPKDKKKKEKKVAKVEPAVSSVVNSIQVLTSKAAILETAPKEVPMVVVPPVGAKGNTPATGTTQGKKAEGTQNQSKKAEGAPNQGRKAEGTPNQGKKTEGTPNQGKKAEGTPNQGKKAEGTPNQGKKAEGAQNQGKKVDTTPNQGKKVEGAPTQGRKAEGAQNQAKKVEGAQNQGKKAEGAQNQGKKGEGAQNQGKKAEGAQNQGKKAEGAQNQGKKAEGAQNQGKKAEGAQNQGKKAEGAQNQGKKAEGAQNQGKKVEGAQNQGKKAEGAQNQGKKAEGAQNQGKKAEGAQNQGKKAEGAQNQGKKAEGAQNQGKKAEGAQNQGKKAEGAQNQGKKVEGAQNQGKKAEGAQNQGKKAEGAQNQGKKAEGAQNQGQKGEGAQNQGKKTEGAQGKKAERSPNQGKKGEGAPIQGKKADSVANQGTKVEGITNQGKKAEGSPSEGKKAEGSPNQGKKADAAANQGKKTESASVQGRNTDVAQSPEAPKQEAPAKKKSGSKKKGEPGPPDADGPLYLPYKTLVSTVGSMVFNEGEAQRLIEILSEKAGIIQDTWHKATQKGDPVAILKRQLEEKEKLLATEQEDAAVAKSKLRELNKEMAAEKAKAAAGEAKVKKQLVAREQEITAVQARMQASYREHVKEVQQLQGKIRTLQEQLENGPNTQLARLQQENSILRDALNQATSQVESKQNAELAKLRQELSKVSKELVEKSEAVRQDEQQRKALEAKAAAFEKQVLQLQASHRESEEALQKRLDEVSRELCHTQSSHASLRADAEKAQEQQQQMAELHSKLQSSEAEVRSKCEELSGLHGQLQEARAENSQLTERIRSIEALLEAGQARDAQDVQASQAEADQQQTRLKELESQVSGLEKEAIELREAVEQQKVKNNDLREKNWKAMEALATAEQACKEKLLSLTQAKEESEKQLCLIEAQTMEALLALLPELSVLAQQNYTEWLQDLKEKGPTLLKHPPAPAEPSSDLASKLREAEETQSTLQAECDQYRSILAETEGMLRDLQKSVEEEEQVWRAKVGAAEEELQKSRVTVKHLEEIVEKLKGELESSDQVREHTSHLEAELEKHMAAASAECQNYAKEVAGLRQLLLESQSQLDAAKSEAQKQSDELALVRQQLSEMKSHVEDGDIAGAPASSPEAPPAEQDPVQLKTQLEWTEAILEDEQTQRQKLTAEFEEAQTSACRLQEELEKLRTAGPLESSETEEASQLKERLEKEKKLTSDLGRAATRLQELLKTTQEQLAREKDTVKKLQEQLEKAEDGSSSKEGTSV
B4: dolichyl-diphosphooligosaccharide--protein glycosyltransferase 48 kD subunit (protein, UniProt P39656 43-456)
chain: SGPRTLVLLDNLNVRETHSLFFRSLKDRGFELTFKTADDPSLSLIKYGEFLYDNLIIFSPSVEDFGGNINVETISAFIDGGGSVLVAASSDIGDPLRELGSECGIEFDEEKTAVIDHHNYDISDLGQHTLIVADTENLLKAPTIVGKSSLNPILFRGVGMVADPDNPLVLDILTGSSTSYSFFPDKPITQYPHAVGKNTLLIAGLQARNNARVIFSGSLDFFSDSFFNSAVQKAAPGSQRYSQTGNYELAVALSRWVFKEEGVLRVGPVSHHRVGETAPPNAYTVTDLVEYSIVIQQLSNGKWVPFDGDDIQLEFVRIDPFVRTFLKKKGGKYSVQFKLPDVYGVFQFKVDYNRLGYTHLYSSTQVSVRPLQHTQYERFIPSAYPYYASAFSMMLGLFIFSIVFLHMKEKEKSD

Biological target: T1, FLAG-tagged SMCR8 (Smith-Magenis Syndrome Chromosome Region, Candidate 8)
Experiment: affinity purification with mass spectrometry; FL-SMCR8, C9orf72-FL or empty vector transfected in HEK 293T; α-FLAG agarose IP from whole cell lysates with or without RNase; LC-MS/MS; hits with three or more spectra and not detected in vector only control

binding, binds:
B1
B2
B3
B4
